Measured values as given in paper PMC7819943, “Rice protein-binding microarrays: a tool to detect cis-acting elements near promoter regions in rice”.
Some of the results follow.

The sequences below were run against T1, OsSMF1 (Oryza sativa, UniProt Q6ZLB0 1-436) (assay: protein-binding microarray (RPBM); PBS, 2% BSA, 51.3 ng/ul salmon testes DNA, 50 uM zinc acetate, 200 nM TF, 25 C, 1 h; high values mean tight binding). Details: protein: recombinant; tags: N-terminal polyhistidine and DsRed monomer fusion (pET32a); chain copies: 2; label: CyDye5-dUTP incorporated in the synthesized complementary strand; 3' TTTTT single-stranded linker to array surface; dsDNA, one strand shown.
T1 sequence: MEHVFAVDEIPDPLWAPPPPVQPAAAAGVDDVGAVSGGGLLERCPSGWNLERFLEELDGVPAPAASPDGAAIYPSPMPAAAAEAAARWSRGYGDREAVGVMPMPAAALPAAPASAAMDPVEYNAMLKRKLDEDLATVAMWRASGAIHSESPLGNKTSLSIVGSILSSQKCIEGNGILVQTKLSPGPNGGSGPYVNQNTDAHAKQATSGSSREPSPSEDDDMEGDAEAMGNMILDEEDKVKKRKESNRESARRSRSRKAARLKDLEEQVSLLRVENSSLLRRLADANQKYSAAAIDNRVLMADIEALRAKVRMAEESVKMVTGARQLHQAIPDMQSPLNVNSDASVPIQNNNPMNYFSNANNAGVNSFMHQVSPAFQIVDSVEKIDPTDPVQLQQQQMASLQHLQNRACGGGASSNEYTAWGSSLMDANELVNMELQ
Summary of the method: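 For the binding signal, per-feature fluorescence intensity was read in arbitrary units on an Axon 4000B scanner. Before scanning, a 2% BSA-blocked custom Agilent array made double-stranded with Cy5-dUTP was washed after 1 h at 25 °C with 200 nM protein and 50 µM zinc acetate. The proteins were Ni–NTA-purified transcription factors with N-terminal polyhistidine and DsRed fusions, expressed in E. coli BL21-CodonPlus.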
With “TGTCCCAGCGTCCACGTATACGTTACGTTCCAGAGCTAGCCGGAGTCACCTAGTGCAG” the binding signal was 8220 fluorescence intensity (a.u.). For “CGGGGTGACACATCATTTTGAGGCCACTTGTAGCTCCTATCGGAGTCACCTAGTGCAG”, the binding signal was 9980 fluorescence intensity (a.u.). “TTTGGTCTCTAAACTTTAGATGTGTAAACTTGAGATGTATCGGAGTCACCTAGTGCAG” was tested, and the binding signal was 3780 fluorescence intensity (a.u.). “TCGATTTACTGACAAAATTGTATCCCAAAACAATGGCTTACGGAGTCACCTAGTGCAG” was tested, and the binding signal was 33700 fluorescence intensity (a.u.). In the case of “TCCCTACCAGAAGACATGTCAGCCTCTACGCAACCATTACCGGAGTCACCTAGTGCAG”, the binding signal is reported as 6870 fluorescence intensity (a.u.). For “CCGGGCCACCAGCTCCTCGCCGCCACGACACCATGAGCCGCGGAGTCACCTAGTGCAG”, the binding signal was 6130 fluorescence intensity (a.u.). “GGCGGGCGGCTAGTCGTACGTCGCAAGCTACTCGACACGTCGGAGTCACCTAGTGCAG” was tested, and the binding signal was 4060 fluorescence intensity (a.u.). “GTATATTCTACTCGCGTCACTCACCCACTGTGTGACTGACCGGAGTCACCTAGTGCAG” was tested, and the binding signal was 6080 fluorescence intensity (a.u.). “CCTCGCCGTTGTGTGAATGCGCACGTGGCTGGTACAACGACGGAGTCACCTAGTGCAG” was tested, and the binding signal was 6810 fluorescence intensity (a.u.). In the case of “TCCCCTTCACCGCAACTTCGGCGAAGTCAAGAAGGAGTAGCGGAGTCACCTAGTGCAG”, the binding signal is reported as 43800 fluorescence intensity (a.u.). With “AGGACATGTTCACGGCCGGGACGGACACGTCGTCGATCATCGGAGTCACCTAGTGCAG” the binding signal was 6440 fluorescence intensity (a.u.). In the case of “TATATTTACTCACATCATACCACATCAATGTTTGTAATAGCGGAGTCACCTAGTGCAG”, the binding signal is reported as 4260 fluorescence intensity (a.u.). For “TATCCTGATGACGGTGCATGTATGCATGCATGGATATGGACGGAGTCACCTAGTGCAG”, the binding signal was 6130 fluorescence intensity (a.u.). In the case of “GAGAGAAGGGGTGAGGAGAGTTTAGGGGTGGAGAGATTATCGGAGTCACCTAGTGCAG”, the binding signal is reported as 33900 fluorescence intensity (a.u.). With “CCACTCATCCAGCAACTGTTTCTCTGTGTACCGTTTCTCTCGGAGTCACCTAGTGCAG” the binding signal was 3170 fluorescence intensity (a.u.). In the case of “GCGCTGCGGGCCGCGCGCGTCCACGCCACCGACCCGCACCCGGAGTCACCTAGTGCAG”, the binding signal is reported as 4090 fluorescence intensity (a.u.). In the case of “CCAGAGGCAGCACACCATCCTGCCACGTGGCTACCCACCACGGAGTCACCTAGTGCAG”, the binding signal is reported as 30400 fluorescence intensity (a.u.). “TGCAGAGCTCCTCTGCAAACTCATCGGCCACGTCAAGCCCCGGAGTCACCTAGTGCAG” was tested, and the binding signal was 10400 fluorescence intensity (a.u.). For “TCTAGCAGTATAATTTGGCTCACTTACAGGCTTATACACACGGAGTCACCTAGTGCAG”, the binding signal was 28200 fluorescence intensity (a.u.). For “GCGTTTCGGACACATTAAGGGCCCATTTGATTTGTAGGAACGGAGTCACCTAGTGCAG”, the binding signal was 24700 fluorescence intensity (a.u.). In the case of “CTAGTGAGGGGCGGGCGGGCGGGCAAGGGGAGCGGATGGGCGGAGTCACCTAGTGCAG”, the binding signal is reported as 5580 fluorescence intensity (a.u.). With “GCACCAACCATCTCACCCGTCCGACGTGGCAGCAGCAACCCGGAGTCACCTAGTGCAG” the binding signal was 5120 fluorescence intensity (a.u.). In the case of “CACTTCAATGTACATGAATCTAAGCAAGCCAAATTTTCAACGGAGTCACCTAGTGCAG”, the binding signal is reported as 3360 fluorescence intensity (a.u.). For “TTGACGTCACACGTCAGGCTGGAGGTAATTCAACCAGTGCCGGAGTCACCTAGTGCAG”, the binding signal was 9260 fluorescence intensity (a.u.). In the case of “AATCAAATGCACATCATCAGTCATCACGTATTCACTTACACGGAGTCACCTAGTGCAG”, the binding signal is reported as 3510 fluorescence intensity (a.u.). For “GACAACACAGACTGTACGGAAATTGTTGGTGACATATCCCCGGAGTCACCTAGTGCAG”, the binding signal was 3770 fluorescence intensity (a.u.). With “ATGCCGGGCATTTACAATGACTGAAAACGATTGCAAAATTCGGAGTCACCTAGTGCAG” the binding signal was 4670 fluorescence intensity (a.u.). With “ATCTAGCAGCAGCAGTGGTAGTAGCTAGCAGCGTCAGCGTCGGAGTCACCTAGTGCAG” the binding signal was 5190 fluorescence intensity (a.u.). In the case of “GAGAGAGGTCCGTCGCTGCTCACGAGTCATGAGTAGGGTGCGGAGTCACCTAGTGCAG”, the binding signal is reported as 3450 fluorescence intensity (a.u.). “TCTAAATGTAATGTCGCAAACTTATTTCATGGGCCAAGAACGGAGTCACCTAGTGCAG” was tested, and the binding signal was 17900 fluorescence intensity (a.u.). “TTGGAGACCGAGAGGAGGAACTGACCAGCCAGCGTCTGAACGGAGTCACCTAGTGCAG” was tested, and the binding signal was 20800 fluorescence intensity (a.u.). With “ATGCTGCCATGTGGTCAGCTTTTGTCGATCGATTACTTGGCGGAGTCACCTAGTGCAG” the binding signal was 10100 fluorescence intensity (a.u.). With “TCTGCATCTGATGTACACGCAGATGAAGATGCGCCGGCACCGGAGTCACCTAGTGCAG” the binding signal was 3220 fluorescence intensity (a.u.). In the case of “CCATGGAATGATGTGACATACTGACATGGCATCTATCTGCCGGAGTCACCTAGTGCAG”, the binding signal is reported as 5630 fluorescence intensity (a.u.). For “AGCTCTTCGCGGCAAAAGAGATCGCCGGCTCGCCGGCCGGCGGAGTCACCTAGTGCAG”, the binding signal was 3820 fluorescence intensity (a.u.). For “ACTATGATATTGCAAACCGCGAGGTACTTGATTCATTACTCGGAGTCACCTAGTGCAG”, the binding signal was 3140 fluorescence intensity (a.u.). With “ATTTAGCAACACATAATCAATCATCCACAGACTTGATTATCGGAGTCACCTAGTGCAG” the binding signal was 3400 fluorescence intensity (a.u.). “AGCCACCATATCAAGCTGCCACCGTCACCTCCCTTGCCAGCGGAGTCACCTAGTGCAG” was tested, and the binding signal was 6110 fluorescence intensity (a.u.). For “TGCTATAAATTTCCGTGATGCATACATTACGTCTGTTTCTCGGAGTCACCTAGTGCAG”, the binding signal was 4120 fluorescence intensity (a.u.). With “CTTATCAAGCACATAATGTTGGAAAATTAAACAAGGAATCCGGAGTCACCTAGTGCAG” the binding signal was 29000 fluorescence intensity (a.u.). With “TCTGTGGGTTAGGGATGGTTATGTCTTATATTTTGGAATGCGGAGTCACCTAGTGCAG” the binding signal was 3680 fluorescence intensity (a.u.). With “TGTTCATTGGTGAAGTTGTTGTCATTTGGTGATTGGGTTGCGGAGTCACCTAGTGCAG” the binding signal was 4540 fluorescence intensity (a.u.). In the case of “TTGACTTGGTGAGACAATGCTGGCGTGGCGTCCAATTAAACGGAGTCACCTAGTGCAG”, the binding signal is reported as 4920 fluorescence intensity (a.u.). With “TTCTCCCGTATCTGTAGAACGGCAGTAGCAAGTTGAAGAGCGGAGTCACCTAGTGCAG” the binding signal was 3380 fluorescence intensity (a.u.). With “ACATAATATTATGAAAACATTATTACTGAAAACCTAGATGCGGAGTCACCTAGTGCAG” the binding signal was 32400 fluorescence intensity (a.u.). In the case of “CGGGGTTATGTGTCACGTGTCAAAATGTGTGGTTTTGTACCGGAGTCACCTAGTGCAG”, the binding signal is reported as 8900 fluorescence intensity (a.u.). “TGGGTACCGTCGCGTTCTTCTTTCCCCTAGCTAGGTCTCGCGGAGTCACCTAGTGCAG” was tested, and the binding signal was 4000 fluorescence intensity (a.u.). In the case of “ATCCAATCGATCACCAACCTCCGATTTCGACATGCCCCGACGGAGTCACCTAGTGCAG”, the binding signal is reported as 3180 fluorescence intensity (a.u.). For “GGTTCGCCGGGTTTGGAGGAGGTGACGCAACGGCTCCGGCCGGAGTCACCTAGTGCAG”, the binding signal was 5720 fluorescence intensity (a.u.). For “TCCCCACTCGCAGTGTAGTTACTCAATGAGGTGTTGCACCCGGAGTCACCTAGTGCAG”, the binding signal was 3290 fluorescence intensity (a.u.). In the case of “CTGAGATGATTTTGTTCATGCATGAAGTCCTTTCTGAAGTCGGAGTCACCTAGTGCAG”, the binding signal is reported as 3490 fluorescence intensity (a.u.). For “GGTAATAGTGTCAACATATTGCATTAAGATGATTGCAGTGCGGAGTCACCTAGTGCAG”, the binding signal was 24300 fluorescence intensity (a.u.). For “ACACGAACCGCAGCCTCCCAGCCCACGCTACCTTGGCTACCGGAGTCACCTAGTGCAG”, the binding signal was 3330 fluorescence intensity (a.u.). For “ACTAGAGTACAGATGAACAGAGGGAACCATACAACCAGTCCGGAGTCACCTAGTGCAG”, the binding signal was 3990 fluorescence intensity (a.u.).
